Test results: publication PMC11421797
Results are given in words; binding and its absence hold for the method and conditions named. In cells and extracts the contact can be indirect. Some entries that bind do so weakly or less than the wild type. For some assays here: Tags and fused reporters may be left off the sequences shown.

By UniProt entry, the sequences of proteins in these tests, tags left out.
UniProt Q9BQA1: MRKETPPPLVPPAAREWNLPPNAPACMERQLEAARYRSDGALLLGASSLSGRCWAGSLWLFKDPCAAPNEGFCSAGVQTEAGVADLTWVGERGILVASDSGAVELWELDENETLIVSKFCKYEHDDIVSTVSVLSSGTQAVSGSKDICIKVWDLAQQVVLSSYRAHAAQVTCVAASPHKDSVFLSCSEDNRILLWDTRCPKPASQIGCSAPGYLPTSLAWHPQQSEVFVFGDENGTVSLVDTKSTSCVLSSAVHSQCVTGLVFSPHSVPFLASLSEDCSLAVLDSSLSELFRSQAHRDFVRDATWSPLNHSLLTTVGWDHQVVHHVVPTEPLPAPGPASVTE
UniProt O14744: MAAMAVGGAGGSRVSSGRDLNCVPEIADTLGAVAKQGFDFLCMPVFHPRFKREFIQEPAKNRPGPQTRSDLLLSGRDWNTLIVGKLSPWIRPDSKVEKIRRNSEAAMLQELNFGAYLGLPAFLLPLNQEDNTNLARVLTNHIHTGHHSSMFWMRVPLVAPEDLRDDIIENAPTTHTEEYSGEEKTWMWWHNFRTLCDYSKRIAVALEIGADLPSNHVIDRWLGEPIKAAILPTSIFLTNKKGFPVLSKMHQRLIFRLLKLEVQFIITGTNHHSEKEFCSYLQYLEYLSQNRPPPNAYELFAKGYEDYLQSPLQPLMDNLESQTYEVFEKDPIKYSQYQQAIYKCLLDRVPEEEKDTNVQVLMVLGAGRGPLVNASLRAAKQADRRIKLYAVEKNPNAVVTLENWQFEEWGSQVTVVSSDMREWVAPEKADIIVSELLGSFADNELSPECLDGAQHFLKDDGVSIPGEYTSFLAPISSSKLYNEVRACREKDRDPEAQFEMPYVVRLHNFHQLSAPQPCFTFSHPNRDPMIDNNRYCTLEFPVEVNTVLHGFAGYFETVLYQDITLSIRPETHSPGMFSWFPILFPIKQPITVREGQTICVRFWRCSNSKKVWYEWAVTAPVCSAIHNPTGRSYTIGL

Assays:
[1] = target: T1, HA-tagged KSHV vCyclin (Kaposi's sarcoma-associated herpesvirus (KSHV BAC16)) (UniProt Q77Q36); experiment: co-IP; HEK293T cells cotransfected with Flag- and HA-tagged plasmids; lysed 48 h after transfection in Western and IP lysis buffer; IP with anti-HA antibodies, immunoblot
T1 sequence: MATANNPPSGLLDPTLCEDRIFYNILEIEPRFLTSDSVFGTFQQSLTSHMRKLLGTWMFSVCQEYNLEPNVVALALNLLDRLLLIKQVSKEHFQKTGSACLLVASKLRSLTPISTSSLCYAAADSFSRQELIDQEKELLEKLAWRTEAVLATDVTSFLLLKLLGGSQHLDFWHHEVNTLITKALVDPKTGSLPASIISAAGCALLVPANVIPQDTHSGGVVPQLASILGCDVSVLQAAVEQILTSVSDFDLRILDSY

[2] = target: T2, GST-fused KSHV vCyclin (Kaposi's sarcoma-associated herpesvirus (KSHV BAC16)) (UniProt Q77Q36); experiment: pull-down; purified GST or GST-vCyclin on glutathione beads incubated with in vitro translated PRMT5 overnight; washed four times with RIPA buffer; western blotting; only the target purified
T2 sequence: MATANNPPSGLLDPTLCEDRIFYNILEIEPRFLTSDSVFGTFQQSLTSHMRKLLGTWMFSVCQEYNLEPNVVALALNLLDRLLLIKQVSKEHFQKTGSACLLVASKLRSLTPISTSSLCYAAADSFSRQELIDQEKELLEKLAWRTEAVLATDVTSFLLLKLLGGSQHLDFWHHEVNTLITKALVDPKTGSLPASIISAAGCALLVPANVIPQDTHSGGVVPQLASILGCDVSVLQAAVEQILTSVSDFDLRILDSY

[3] = target: HA-tagged methylosome protein 50 (human) (UniProt Q9BQA1); experiment: co-IP; HEK293T cells cotransfected with Flag- and HA-tagged plasmids; lysed 48 h after transfection in Western and IP lysis buffer; IP with anti-HA antibodies, immunoblot
[4] = target: HA-tagged protein arginine methyltransferase 5 (human) (UniProt O14744); experiment: as above
[5] = target: endogenous protein arginine methyltransferase 5 (human (endogenous in HEK293T, HEK293T.219 and iSLK.RGB)) (UniProt O14744); experiment: co-IP; endogenous proteins; iSLK.RGB cell lysates immunoprecipitated with anti-PRMT5 antibody or rabbit IgG control, immunoblot

In the case of “Flag-tagged protein arginine methyltransferase 5 (from UniProt O14744 1-637) (enzyme)”, the binding [1] is reported as “binds”.

With “in vitro translated PRMT5 (from UniProt O14744 1-637) (enzyme)” the binding [2] was “binds”.

B1: Flag-tagged KSHV vCyclin (protein, UniProt Q77Q36 1-257)
chain: MATANNPPSGLLDPTLCEDRIFYNILEIEPRFLTSDSVFGTFQQSLTSHMRKLLGTWMFSVCQEYNLEPNVVALALNLLDRLLLIKQVSKEHFQKTGSACLLVASKLRSLTPISTSSLCYAAADSFSRQELIDQEKELLEKLAWRTEAVLATDVTSFLLLKLLGGSQHLDFWHHEVNTLITKALVDPKTGSLPASIISAAGCALLVPANVIPQDTHSGGVVPQLASILGCDVSVLQAAVEQILTSVSDFDLRILDSY
With B1 the binding [3] was “binds” and the binding [4] was “binds”.

B2: endogenous KSHV vCyclin (protein, UniProt Q77Q36 1-257)
chain: MATANNPPSGLLDPTLCEDRIFYNILEIEPRFLTSDSVFGTFQQSLTSHMRKLLGTWMFSVCQEYNLEPNVVALALNLLDRLLLIKQVSKEHFQKTGSACLLVASKLRSLTPISTSSLCYAAADSFSRQELIDQEKELLEKLAWRTEAVLATDVTSFLLLKLLGGSQHLDFWHHEVNTLITKALVDPKTGSLPASIISAAGCALLVPANVIPQDTHSGGVVPQLASILGCDVSVLQAAVEQILTSVSDFDLRILDSY
For B2, the binding [5] was “binds”.
